Data as given in US20250177303A1, “A DRUG NANOCARRIER SYSTEM TO DELIVER A COMBINATION OF TLR AGONISTS AND/OR A LIPOXIN PLUS IMMUNOGENIC CELL DEATH INDUCING CHEMOTHERAPEUTIC AGENTS FOR CANCER IMMUNOTHERAPY” (The Regents of the University of California, priority 2022, published 2025).
For some of these results: At least one compound was matched to its structure with a doubt left. Some of these results come from one statement about several compounds together.

Experiments:
TLR7 = settings: cited from earlier work
RAW264.7 macrophages = assay: RAW264.7 macrophage activation (CD80 flow cytometry, IL-12p40 and TNF-α ELISA); assay type: cell-based, murine; settings: RAW264.7, 10 μM, 21 h
Method: (§1) Having confirmed effective intracellular delivery of TLR7 activation, the next task was to determine the effect of the 3M-silicasome in the ex vivo activation of macrophages and DCs. These assays were performed in RAW264.7 macrophages and murine bone marrow-derived dendritic cells (BMDCs). RAW264.7 and BMDCs were treated with 10 μM each of R848 (positive control), free 3M-052, or the 3M-silicasome for 21 hours before assessing CD80 expression (FIG. 16, panels C and E). […] We also quantified the release of two key pro-inflammatory cytokines, IL-12p40 and TNF-α by ELISA in the same cell types, using similar stimuli.
RAW264.7 cells (1×10^5 cells/well) were cultured in 48-well plates for 24 h, before the addition of PBS or 10 μM concentrations of R848, free 3M-052 or the 3M-silicasome for a further 21 h. Immature BMDCs (5×10^5 cells/well) were cultured in 24-well plates, receiving the same dose of R848, free 3M-052, and 3M-silicasome for 21 h. […]
(§2) For flow cytometry analysis of surface markers, cells were washed with cell staining buffer, before staining RAW264.7 cells with anti-CD80 or BMDCs with FITC-conjugated anti-CD11c and anti-CD80 on ice, according to the manufacturer's instructions. The assessment of the differentiation and activation markers were evaluated by flow cytometry (LSRFortessa; BD Biosciences), analyzed by FlowJo software.

[1] = test system: murine bone marrow-derived dendritic cells (BMDCs); assay: BMDC activation (flow cytometry, IL-12p40 and TNF-α ELISA); assay type: cell-based; settings: 10 μM, 21 h
Method: as §1
Bone marrow-derived dendritic cells (BMDCs) were prepared according to our established procedure, with a slight modification.^[42] Bone marrow cells flushed from the femur and tibia of B6/129 mice were collected and red blood cells were lysed by incubating in ACK Lysing Buffer. […]
as §2

[2] = Pharmacokinetics of 3M-052 and IRIN in plasma (HPLC); settings: single IV, 3M-052 2 mg/kg, IRIN 40 mg/kg

Row | Compound | Potency relative to R837 (TLR7) | CD80 cell surface expression (RAW264.7 macrophages) | IL-12p40 and TNF-α release (RAW264.7 macrophages; ELISA) | CD80 cell surface expression [1] | IL-12p40 and TNF-α release ([1]; ELISA) | Time of disappearance from the blood [2]
1 | CCOCc1nc2c(N)nc3ccccc3c2n1CC(C)(C)O [R848, Resiquimod] | 10-fold to 100-fold | significant increase in cell surface expression of a maturation marker | significant cytokine release | significant increase in cell surface expression of a maturation marker | significant cytokine release | –
2 | CCCCCCCCCCCCCCCCCC(=O)NCCCCOn1c(CCCC)nc2c(N)nc3ccccc3c21 [free 3M-052, Telratolimod] | – | – | – | – | – | < 60 min
3 | CCc1c2c(nc3ccc(OC(=O)N4CCC(N5CCCCC5)CC4)cc13)-c1cc3c(c(=O)n1C2)COC(=O)[C@]3(O)CC [free IRIN, Irinotecan] | – | – | – | – | – | < 60 min
